Assay results as given in article PMC11730779.
Residue numbers refer to the chain shown, from its start. Numbers in names are those of the source. These are yes or no findings as the source states them, for the method shown. Binding seen in cells or lysates may run through a third protein. Binding can be weak; no strength is given.

Amino acid sequences for entries named in this document (tags omitted). A change or cut given only in a name is not applied to a line headed by its entry.
UniProt P11881: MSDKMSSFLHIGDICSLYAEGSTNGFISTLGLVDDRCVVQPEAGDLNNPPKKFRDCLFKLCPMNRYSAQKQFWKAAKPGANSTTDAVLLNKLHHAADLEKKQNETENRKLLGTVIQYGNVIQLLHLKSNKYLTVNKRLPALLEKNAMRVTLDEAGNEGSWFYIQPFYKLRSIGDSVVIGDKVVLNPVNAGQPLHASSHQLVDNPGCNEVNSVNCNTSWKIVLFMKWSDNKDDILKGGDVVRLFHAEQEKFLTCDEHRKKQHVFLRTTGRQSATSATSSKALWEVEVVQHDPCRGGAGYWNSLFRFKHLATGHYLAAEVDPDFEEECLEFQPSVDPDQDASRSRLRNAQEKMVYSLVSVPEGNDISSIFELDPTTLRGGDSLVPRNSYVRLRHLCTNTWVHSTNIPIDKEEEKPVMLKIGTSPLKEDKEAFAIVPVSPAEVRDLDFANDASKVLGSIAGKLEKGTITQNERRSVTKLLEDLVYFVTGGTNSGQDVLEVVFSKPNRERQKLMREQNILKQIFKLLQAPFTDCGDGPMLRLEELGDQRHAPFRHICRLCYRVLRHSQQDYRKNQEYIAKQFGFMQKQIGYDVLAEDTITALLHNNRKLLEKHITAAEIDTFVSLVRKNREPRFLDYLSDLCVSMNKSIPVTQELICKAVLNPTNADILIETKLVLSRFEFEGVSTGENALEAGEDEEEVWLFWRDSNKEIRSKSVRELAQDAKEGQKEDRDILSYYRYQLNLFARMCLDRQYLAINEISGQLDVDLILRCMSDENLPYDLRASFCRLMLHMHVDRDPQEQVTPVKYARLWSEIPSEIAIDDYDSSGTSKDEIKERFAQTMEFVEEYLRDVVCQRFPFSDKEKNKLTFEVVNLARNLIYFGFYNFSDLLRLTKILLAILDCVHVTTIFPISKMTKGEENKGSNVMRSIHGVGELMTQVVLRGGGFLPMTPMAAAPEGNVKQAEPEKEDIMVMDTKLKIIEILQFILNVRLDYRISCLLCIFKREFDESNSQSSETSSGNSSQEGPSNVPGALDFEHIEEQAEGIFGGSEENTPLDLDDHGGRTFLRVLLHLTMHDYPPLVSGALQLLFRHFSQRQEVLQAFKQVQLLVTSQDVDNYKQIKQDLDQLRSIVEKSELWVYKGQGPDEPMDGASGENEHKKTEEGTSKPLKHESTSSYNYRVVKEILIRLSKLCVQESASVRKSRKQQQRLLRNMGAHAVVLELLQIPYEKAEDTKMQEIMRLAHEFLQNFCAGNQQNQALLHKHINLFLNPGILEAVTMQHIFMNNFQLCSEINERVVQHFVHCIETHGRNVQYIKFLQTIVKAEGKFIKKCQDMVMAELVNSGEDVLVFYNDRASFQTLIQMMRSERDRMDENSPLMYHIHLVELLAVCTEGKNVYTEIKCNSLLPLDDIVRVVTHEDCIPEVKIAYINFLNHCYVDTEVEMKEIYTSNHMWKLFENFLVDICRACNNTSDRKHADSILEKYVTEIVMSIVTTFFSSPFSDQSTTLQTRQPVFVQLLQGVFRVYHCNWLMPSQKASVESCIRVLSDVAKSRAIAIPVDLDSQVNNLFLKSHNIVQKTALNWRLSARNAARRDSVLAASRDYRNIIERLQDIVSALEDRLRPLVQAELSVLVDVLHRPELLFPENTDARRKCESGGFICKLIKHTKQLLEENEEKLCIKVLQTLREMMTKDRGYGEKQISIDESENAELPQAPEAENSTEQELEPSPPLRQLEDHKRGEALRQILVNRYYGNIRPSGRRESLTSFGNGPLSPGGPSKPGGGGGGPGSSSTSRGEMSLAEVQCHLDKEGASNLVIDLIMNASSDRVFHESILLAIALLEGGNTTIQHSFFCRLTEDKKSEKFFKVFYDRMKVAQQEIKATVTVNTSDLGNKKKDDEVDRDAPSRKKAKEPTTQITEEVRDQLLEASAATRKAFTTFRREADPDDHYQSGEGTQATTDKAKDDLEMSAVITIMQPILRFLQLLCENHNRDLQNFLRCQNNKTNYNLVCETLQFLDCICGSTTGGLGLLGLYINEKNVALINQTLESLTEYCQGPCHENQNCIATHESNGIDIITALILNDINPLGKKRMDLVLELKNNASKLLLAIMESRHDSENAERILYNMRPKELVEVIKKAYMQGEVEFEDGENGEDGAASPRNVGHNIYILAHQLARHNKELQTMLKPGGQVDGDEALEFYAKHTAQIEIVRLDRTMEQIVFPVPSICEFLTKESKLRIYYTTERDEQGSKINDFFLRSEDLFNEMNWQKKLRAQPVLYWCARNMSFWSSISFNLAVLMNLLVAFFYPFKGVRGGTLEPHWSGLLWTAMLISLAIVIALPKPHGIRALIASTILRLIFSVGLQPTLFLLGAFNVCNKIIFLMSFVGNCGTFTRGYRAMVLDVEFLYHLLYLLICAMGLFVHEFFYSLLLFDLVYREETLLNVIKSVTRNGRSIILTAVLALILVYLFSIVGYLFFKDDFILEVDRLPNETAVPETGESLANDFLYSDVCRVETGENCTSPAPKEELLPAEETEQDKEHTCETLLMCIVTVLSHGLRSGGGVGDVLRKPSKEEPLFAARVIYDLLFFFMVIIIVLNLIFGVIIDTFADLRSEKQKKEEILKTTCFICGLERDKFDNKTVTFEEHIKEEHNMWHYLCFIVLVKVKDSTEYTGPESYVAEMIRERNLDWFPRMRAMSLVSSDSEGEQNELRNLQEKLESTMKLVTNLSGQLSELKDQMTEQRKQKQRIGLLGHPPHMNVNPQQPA

B1: Bok^WT (exogenous wild-type Bok) (protein, UniProt Q9UMX3 1-212)
chain: MEVLRRSSVFAAEIMDAFDRSPTDKELVAQAKALGREYVHARLLRAGLSWSAPERAAPVPGRLAEVCAVLLRLGDELEMIRPSVYRNVARQLHISLQSEPVVTDAFLAVAGHIFSAGITWGKVVSLYAVAAGLAVDCVRQAQPAMVHALVDCLGEFVRKTLATWLRRRGGWTDVLKCVVSTDPGLRSHWLVAALCSFGRFLKAAFFVLLPER
B2: Bok^S8A (protein, UniProt Q9UMX3 1-212)
chain: B1 chain with S8A
B3: Bok^S8E (protein, UniProt Q9UMX3 1-212)
chain: B1 chain with S8E

target: IP3R1HA^WT (exogenous HA-tagged IP3R1) (UniProt P11881); assay: co-IP; HEK-3KO cells transiently transfected with IP3R1HA^WT and Bok constructs; 1% CHAPS lysates; IP3R1HA IPs, immunoblot for Bok

Binder	binding
B1	binds
B2	binds
B3	binds
